Results deposited as PubChem BioAssay AID504774 (Drosophila RNAi Screening Center, 2011)

- Test: 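Genes required for cells to withstand methyl methanesulphonate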 (primary screen)
- System: Drosophila Kc167 cells
- Knock-down reagent: long dsRNA against Drosophila genes, about 0.25 µg dsRNA per well
- Time to read-out: about 6 days: 3 days knock-down, then 3 days with or without MMS
- Treatment: methyl methanesulphonate 0.004% (w/v) for 3 days after knock-down
- Measured: 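ATP-dependent luminescence as a measure of live cells in MMS-exposed wells, quantile normalised within each plate, with replicate values also given as a mean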
- Scale: mean viability with MMS and viability with MMS: higher = more surviving cells after MMS
The deposit covers about 23,000 reagents; this is a random part of those with a known target gene and a result. 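Values are quantile-normalised luminescence on an arbitrary scale; higher means more cells surviving MMS.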 Reagents against one gene are numbered here. A plus sign joins genes that one reagent is predicted to hit. Not all columns of the deposit are shown.

CG4267 | mean viability with MMS: 3.58e6; viability with MMS, replicate 1: 4.11e6
otu | mean viability with MMS: 3.47e6; viability with MMS, replicate 1: 3.92e6
CG13050 | mean viability with MMS: 3.55e6; viability with MMS, replicate 1: 3.98e6
CG9795 | mean viability with MMS: 3.49e6; viability with MMS, replicate 1: 3.89e6
CheB38b | mean viability with MMS: 3.32e6; viability with MMS, replicate 1: 3.85e6
Ak2 | mean viability with MMS: 3.49e6; viability with MMS, replicate 1: 4.03e6
CG13216 | mean viability with MMS: 3.58e6; viability with MMS, replicate 1: 3.93e6
alpha-Man-Ib | mean viability with MMS: 3.45e6; viability with MMS, replicate 1: 3.97e6
CG12672 | mean viability with MMS: 3.58e6; viability with MMS, replicate 1: 4.07e6
lncRNA:CR32657 | mean viability with MMS: 3.59e6; viability with MMS, replicate 1: 4.09e6
CG11635 + spaw | mean viability with MMS: 3.55e6; viability with MMS, replicate 1: 3.94e6
AttA | mean viability with MMS: 3.44e6; viability with MMS, replicate 1: 3.80e6
tw | mean viability with MMS: 3.41e6; viability with MMS, replicate 1: 3.95e6
CG14322 | mean viability with MMS: 3.55e6; viability with MMS, replicate 1: 4.09e6
CG8031 | mean viability with MMS: 3.59e6; viability with MMS, replicate 1: 4.03e6
CG7728 | mean viability with MMS: 3.58e6; viability with MMS, replicate 1: 4.06e6
sit | mean viability with MMS: 3.42e6; viability with MMS, replicate 1: 3.87e6
CG42613 #1 | mean viability with MMS: 3.39e6; viability with MMS, replicate 1: 3.86e6
CG42613 #2 | mean viability with MMS: 3.54e6; viability with MMS, replicate 1: 4.18e6
CG42613 #3 | mean viability with MMS: 3.89e6; viability with MMS, replicate 1: 4.39e6
CG18605 | mean viability with MMS: 3.38e6; viability with MMS, replicate 1: 3.90e6
trx | mean viability with MMS: 3.56e6; viability with MMS, replicate 1: 4.10e6
Prosbeta2 | mean viability with MMS: 3.25e6; viability with MMS, replicate 1: 3.70e6
opa #1 | mean viability with MMS: 3.46e6; viability with MMS, replicate 1: 3.99e6
opa #2 | mean viability with MMS: 3.22e6; viability with MMS, replicate 1: 3.76e6
opa #3 | mean viability with MMS: 3.45e6; viability with MMS, replicate 1: 3.86e6
